Experimental findings from PMC9631052 are described below.

This assay has as its target T1, VAMP‐associated protein A (human (endogenous in HCCLM3‐BM4)) (UniProt Q9P0L0).
T1 sequence: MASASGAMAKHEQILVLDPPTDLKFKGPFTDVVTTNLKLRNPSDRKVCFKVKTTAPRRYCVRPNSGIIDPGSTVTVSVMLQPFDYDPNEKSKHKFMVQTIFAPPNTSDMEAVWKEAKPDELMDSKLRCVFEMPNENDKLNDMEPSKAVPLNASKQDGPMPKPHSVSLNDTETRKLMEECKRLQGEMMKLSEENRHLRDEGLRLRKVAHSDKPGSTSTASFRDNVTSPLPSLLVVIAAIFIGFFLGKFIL
In words: co-IP; endogenous proteins in HCCLM3‐BM4 cells and in LOs derived from HCCLM3‐BM4 cells (Figure 1I, Figure S2A).

Results are given in words; binding and its absence hold for the method and conditions named. In cells and extracts the contact can be indirect.

B1: cytokeratin 18 (protein, UniProt P05783 1-430)
chain: MSFTTRSTFSTNYRSLGSVQAPSYGARPVSSAASVYAGAGGSGSRISVSRSTSFRGGMGSGGLATGIAGGLAGMGGIQNEKETMQSLNDRLASYLDRVRSLETENRRLESKIREHLEKKGPQVRDWSHYFKIIEDLRAQIFANTVDNARIVLQIDNARLAADDFRVKYETELAMRQSVENDIHGLRKVIDDTNITRLQLETEIEALKEELLFMKKNHEEEVKGLQAQIASSGLTVEVDAPKSQDLAKIMADIRAQYDELARKNREELDKYWSQQIEESTTVVTTQSAEVGAAETTLTELRRTVQSLEIDLDSMRNLKASLENSLREVEARYALQMEQLNGILLHLESELAQTRAEGQRQAQEYEALLNIKVKLEAEIATYRRLLEDGEDFNLGDALDSSNSMQTIQKTTTRRIVDGKVVSETNDTKVLRH
In the case of B1, the binding entry is reported as “no binding”.
